Measurements: the supplement of paper PMC11150407
Values joined by “and” are separate entries in the source; they are usually repeats but may differ in a detail not shown here. Equal values may be shown once. Out of some 2,100 compounds screened, about 180 (8.6%) showed an effect of 50% or more. The list shows a part of the results.

The compounds below were run on MOLM1 and UCSD/AML1 (averaged) (assay: cell viability relative to DMSO control (POC); higher = less growth inhibition). Details: 1 µM; 72 h.
Protocol: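 Primary viability screen in the 3q26 EVI1-high AML cell lines MOLM1 and UCSD/AML1 (1.5e3 cells/well, 384-well), compounds at 1 uM for 72 h. ATP CellTiter-Glo read-out given as percent of viable cells over DMSO control (POC), averaged over duplicates. DMSO was the negative control and 5 uM etoposide the positive control. This mapping covers the MicroSource Spectrum and Selleck anticancer libraries (drug names).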

First: CCOc1ccc(Cc2nccc3cc(OCC)c(OCC)cc23)cc1OCC
Second: CCCc1nn(C)c2c(=O)[nH]c(-c3cc(S(=O)(=O)N4CCN(C)CC4)ccc3OCC)nc12
The cell viability of the first is lower: 89.2% for the first, 99.1% for the second.

Going from O=C(Nc1ccc([N+](=O)[O-])cc1Cl)c1cc(Cl)ccc1O to Cn1cnc2c(F)c(Nc3ccc(Br)cc3Cl)c(C(=O)NOCCO)cc21 [AZD6244 (Selumetinib)], the cell viability falls from 103% to 15.5%.

First: O=C(Nc1cccnc1)N1CCC(Cc2cccc(Oc3ccc(C(F)(F)F)cn3)c2)CC1
Second: O=C(/C=C/c1cccnc1)NCCCCC1CCN(C(=O)c2ccccc2)CC1
The cell viability of the first is higher: 56.7% for the first, 12% for the second.

Going from CSCCC(N)C(=O)NC(CC(C)C)C(=O)NC(Cc1ccccc1)C(=O)O (configuration not stated) to CC(=O)/C(=C\c1ccccc1)CC(=O)O, the cell viability rises from 97.7% to 118%.

First: CN1CCCN=C1/C=C/c1cccs1
Second: CCCCOc1ccc(C(=O)CCN2CCCCC2)cc1
The cell viability of the first is lower: 102% for the first, 104% for the second.

First: CO[C@H]1C[C@@H]2CC[C@@H](C)[C@@](O)(O2)C(=O)C(=O)N2CCCC[C@H]2C(=O)O[C@H]([C@H](C)C[C@@H]2CC[C@@H](OC(=O)C(C)(CO)CO)[C@H](OC)C2)CC(=O)[C@H](C)/C=C(\C)[C@@H](O)[C@@H](OC)C(=O)[C@H](C)C[C@H](C)/C=C/C=C/C=C/1C
Second: CCC(C)(C)C(=O)O[C@H]1C[C@@H](C)C=C2C=C[C@H](C)[C@H](CC[C@@H]3C[C@@H](O)CC(=O)O3)[C@H]21 [Simvastatin (Zocor)]
The cell viability of the first is lower: 11% for the first, 69.1% for the second.

Compared with CCC[C@@H]1C[C@@H](C(=O)N[C@@H]([C@H]2O[C@H](SC)[C@H](O)[C@@H](O)[C@H]2O)[C@@H](C)O)N(C)C1, COc1ccc(CCC(=O)c2c(O)cc(O[C@@H]3O[C@H](CO)[C@@H](O)[C@H](O)[C@H]3O[C@@H]3O[C@@H](C)[C@H](O)[C@@H](O)[C@H]3O)cc2O)cc1O is lower in cell viability: 104% for the first, 97.1% for the second.

Going from C=C1C(N)CC2CC1C2(C)C (stereo not drawn) [3-AMINO-beta-PINENE] to C=C1C(=O)O[C@H]2[C@H]1CC/C(C)=C/CC[C@@]1(C)O[C@@H]21, the cell viability falls from 96.3% to 88.5%.

Going from C=CC1=C(C)/C(=C/c2[nH]c(Cc3[nH]c(/C=C4\NC(=O)C(C)=C4C=C)c(C)c3CCC(=O)O)c(CCC(=O)O)c2C)NC1=O to CC(=O)Oc1cc(C)c2c(c1C=O)Oc1c(c(C)c(OC(C)=O)c3c1C(OC(C)=O)OC3=O)OC2=O (configuration not stated), the cell viability rises from 91.9% to 106%.

First: Cc1ccc(C(=O)N(CCCN)[C@@H](c2oc3cc(Cl)ccc3c(=O)c2Cc2ccccc2)C(C)C)cc1
Second: CC(=O)Oc1ccc(C(c2ccc(OC(C)=O)cc2)c2ccccn2)cc1
The cell viability of the first is lower: 13.4% for the first, 97.4% for the second.

First: CC(C)(C)NC(=O)[C@H]1CC[C@H]2[C@@H]3CC[C@H]4NC(=O)C=C[C@]4(C)[C@H]3CC[C@]12C
Second: C[C@H]1[C@H]2CC[C@H]3[C@@H]4CC=C5C[C@@H](N(C)C)CC[C@]5(C)[C@H]4CC[C@]23CN1C
The cell viability of the first is lower: 98.2% for the first, 102% for the second.

Compared with C=C1CC[C@H](O)C/C1=C/C=C1\CCC[C@]2(C)[C@@H]([C@H](C)/C=C/[C@H](C)C(C)C)CC[C@@H]12, CC(C)=CCC[C@@H](C)[C@@H]1CC[C@]2(C)C3=C(CC[C@@]12C)[C@@]1(C)CC[C@H](O)C(C)(C)[C@@H]1CC3 is lower in cell viability: 101% for the first, 97.6% for the second.

Compared with CC(C)=CCCC1(C)C=Cc2c(O)c3c(c(CC=C(C)C)c2O1)OC12C(=CCCC1C(C)(C)O[C@@]2(C/C=C(\C)C(=O)O)C(=O)O)C3=O (some centres not stated), CC(=O)OCC(=O)[C@@]1(O)CC[C@H]2[C@@H]3CCC4=CC(=O)C=C[C@]4(C)[C@H]3[C@@H](O)C[C@@]21C is lower in cell viability: 103% for the first, 75.2% for the second.

First: Nc1nc(N)c2nc(-c3ccccc3)c(N)nc2n1
Second: CC(CN(C)C)CN1c2ccccc2CCc2ccccc21 (configuration not stated)
The cell viability of the first is higher: 99.5% for the first, 95.5% for the second.

First: COc1cccc(O)c1O
Second: COc1ccc(C(C)=O)c(OC)c1
The cell viability of the first is higher: 110% for the first, 91.5% for the second.

First: CC(C)(C)CC(C)(C)c1ccc(OCCOCC[N+](C)(C)Cc2ccccc2)cc1
Second: CC(NCCc1ccc(O)cc1)C(O)c1ccc(O)cc1 (configuration not stated)
The cell viability of the first is lower: 97.1% for the first, 103% for the second.

First: C[C@]12CC[C@H](O)CC1=CC[C@@H]1[C@@H]2CC[C@]2(C)C(c3cccnc3)=CC[C@@H]12 [Abiraterone (CB-7598)]
Second: C[C@]12CCC(=O)C=C1CC[C@@H]1[C@@H]2[C@@H](O)C[C@@]2(C)[C@H]1CC[C@]2(O)C(=O)COP(=O)(O)O
The cell viability of the first is higher: 102% for the first, 93.2% for the second.

Compared with Cn1nnc2c(C(N)=O)ncn2c1=O [Temozolomide], N#CC[C@H](C1CCCC1)n1cc(-c2ncnc3[nH]ccc23)cn1 is lower in cell viability: 93.3% for the first, 73.1% for the second.

Compared with OC(CCN1CCCC1)(c1ccccc1)C1CCCCC1 (configuration not stated), CN(Cc1cc(Br)cc(Br)c1N)C1CCCCC1 is lower in cell viability: 107% for the first, 102% for the second.

First: CC(C)NCC(O)COc1cccc2[nH]ccc12 (configuration not stated)
Second: CC(C)c1c(O)ccc2c1CCC1[C@@](C)(C=O)CCC[C@]21C (some centres not stated)
The cell viability of the first is higher: 105% for the first, 96.4% for the second.

First: CC1=C(/C=C/C(C)=C/C=C/C(C)=C/C=C/C=C(C)/C=C/C=C(C)/C=C/C(=O)[C@]2(C)C[C@@H](O)CC2(C)C)C(C)(C)C[C@H](O)C1
Second: C=C[C@@]1(C)CC(=O)[C@@]2(O)[C@](C)(O1)[C@@H](O)[C@@H](O)C1C(C)(C)CC[C@H](O)[C@@]12C (some centres not stated)
The cell viability of the first is higher: 99.8% for the first, 98.8% for the second.

Compared with C[N+](C)(C)C[C@H](O)CC(=O)[O-], CCCCS(=N)(=O)CCC(N)C(=O)O (configuration not stated) is higher in cell viability: 96.9% for the first, 124% for the second.

First: CC1(C)O[C@@H]2C[C@H]3[C@@H]4C[C@H](F)C5=CC(=O)C=C[C@]5(C)[C@H]4[C@@H](O)C[C@]3(C)[C@]2(C(=O)CO)O1
Second: CC(=O)O[C@@H]1CC2C(C)(C)[C@H](O)CC[C@]2(C)C2CC[C@@]3(C)[C@H](c4ccoc4)OC(=O)C4OC43[C@@]21C (stereo partly drawn) [alpha-DIHYDROGEDUNOL]
The cell viability of the first is lower: 76.6% for the first, 123% for the second.

Compared with C[C@H](CS)C(=O)N1CCC[C@H]1C(=O)O, CCC(C)(C)C(=O)O[C@H]1C[C@@H](C)C=C2C=C[C@H](C)[C@H](CC[C@@H]3C[C@@H](O)CC(=O)O3)[C@H]21 is lower in cell viability: 100% for the first, 67.5% for the second.

Compared with C/C=C(\C)C(=O)O[C@@H]1c2c(ccc3ccc(=O)oc23)OC(C)(C)[C@@H]1OC(C)=O, O=C1CC[C@]23/C=C/C(=O)NCCCCNCCCNC(=O)/C=C/c4ccc(c2c4)O[C@@H]3C1 is lower in cell viability: 101% for the first, 97.1% for the second.

CCC1(C)CC(=O)NC1=O (configuration not stated) was tested, and the cell viability was 101%.

In the case of NCCc1ccc(O)c(O)c1, the cell viability was 89.3% and 104%.
